Values from PubChem BioAssay AID1259308 (NCATS, 2017)
Screen: 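Candidate targets for better recombinant protein yield in mammalian cells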 (primary screen). Cells: human HEK293 embryonic kidney cells stably expressing firefly luciferase (HEK-CMV-Luc2-Hygro). Reagents: single siRNA against human genes, 0.8 pmol siRNA per well. Timing: 72 h. Read-out: 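Reporter luminescence and viable-cell signal on separate replicate plates, given as percent of non-targeting control and median/MAD z-scores, plus per-cell luciferase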. Scale: total luciferase, z-score: higher = more reporter protein produced. Rule for the call: 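Active when the median/MAD z-score for overall luciferase is greater than 3; a gene was taken forward for validation with new siRNAs if at least two of its three siRNAs passed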. Calls: active = raised luciferase; inactive = no rise.
The whole screen tested about 59,000 reagents; shown is a random part of them. Over the whole deposit, about 1,510 (2.6%) got an active call. 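Calls use total luciferase alone and ignore viability, so some active siRNAs may act by altering cell number.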 Reagents against one gene are numbered here. Not all columns of the deposit are shown. No sequences are given here.

How did the screen score ZNF682 #1?
total luciferase, z-score: 4.07; activity call: active

Which result is listed for ZNF682 #2?
total luciferase, z-score: 1.74; activity call: inactive

For ZNF682 #3, what was measured?
total luciferase, z-score: 0.182; activity call: inactive

How did the screen score NANOS2 #1?
total luciferase, z-score: 0.666; activity call: inactive

How did the screen score NANOS2 #2?
total luciferase, z-score: 0.545; activity call: inactive

For NANOS2 #3, what does the deposit list?
total luciferase, z-score: 1.03; activity call: inactive

For BRIX1 #1, how do the results read?
total luciferase, z-score: -0.988; activity call: inactive

How did the screen score BRIX1 #2?
total luciferase, z-score: -2.06; activity call: inactive

Which result is listed for BRIX1 #3?
total luciferase, z-score: -1.66; activity call: inactive

What did the screen give for CYB5R1 #1?
total luciferase, z-score: -0.781; activity call: inactive

With CYB5R1 #2, what does the deposit list?
total luciferase, z-score: -0.0226; activity call: inactive

Which result is listed for CYB5R1 #3?
total luciferase, z-score: 0.956; activity call: inactive
